Data as given in PubChem BioAssay AID540256 (National Center for Advancing Translational Sciences (NCATS), 2011).
Where “and” joins values, the source holds several entries; their conditions need not be identical. Equal values may be shown once. About 3,700 (1.2%) of roughly 300,000 compounds were called active. The inconclusive results got no clear call from the source; some entries with a clear call stand among them for comparison. Calls come from the whole dose curve; tested in HEK293 cells. Where the call is inconclusive, the potency comes from a doubtful curve fit.

test: qHTS for Inhibitors of binding or entry into cells for Lassa Virus; settings: Lassa virus pseudotype entry inhibition, cell reporter; series mostly up to 37.9 µM; note: nearly all actives have a fitted effect of over 50% in size
Potency is the fitted concentration of half-maximal effect.

Row | Compound | Potency
1 | COc1cccc(CN2C(=O)c3ccccc3Sc3ccc(C(=O)NCc4ccccc4)cc32)c1 | inactive
2 | c1ccc2oc(SCc3cn4ccccc4n3)nc2c1 | inconclusive: 20.6 µM [inhibitor, single point]
3 | COc1ccccc1OCCNC(=O)c1ccc(C(C)(C)C)cc1 | inconclusive: 2.82 µM [activator, single point]
4 | COc1ccc(F)cc1S(=O)(=O)Nc1cc2c3c(c1)CC(=O)N3CCC2 | inactive
5 | CCOc1cc(/C=N/NC(=O)c2nn(C)cc2Br)ccc1OCc1ccccc1Cl | inconclusive: 25.1 µM [inhibitor, single point]
6 | CCOc1cccc(-c2c(C(=O)N/N=C(\C)c3ccncc3)nnn2-c2nonc2N)c1 | inactive
7 | Cc1ccc(S(=O)(=O)NC2OC(=O)C(Cl)=C2Cl)cc1 (stereo unspecified) | inactive
8 | O=C1C(N2CCOCC2)=C(n2nnc3ccccc32)C(=O)c2ccccc21 | inconclusive: 11.2 µM [inhibitor, partial curve, poor fit]
9 | CCOC(=O)C1(Cc2cccc(Cl)c2)CCCN(C(=O)c2ccc(COC)s2)C1 (stereo unspecified) | inconclusive: 14.1 µM [inhibitor, partial curve, poor fit]
10 | O=C(CSc1ccc(Cl)cc1)Nc1ccc(N2CCN(C(=O)c3ccco3)CC2)cc1 | inactive
11 | N#Cc1c(-c2ccccc2F)cc(-c2cccnc2)nc1N | inconclusive: 29.1 µM [inhibitor, single point]
12 | CCN(CC)c1cc(C)c2cc(NC(=O)c3ccc(OC)c(OC)c3)ccc2n1 | inconclusive: 22.4 µM [inhibitor, single point]
13 | CCOC(=O)C1(CCOC)CCN(Cc2nc(-c3cccs3)oc2C)CC1 | inconclusive: 11.2 µM [inhibitor, partial curve]
14 | CCc1ccc(NC(=O)CSc2nc3c([nH]c4ccccc43)c(=O)n2-c2ccc(C)cc2)cc1 | inconclusive: 1.12 µM [inhibitor, full curve, poor fit]
15 | Cc1cccc(C2c3[nH]c4ccccc4c3CCN2C(=O)c2nn(C)c(=O)c3ccccc23)n1 (stereo unspecified) | active: 11.2 µM
16 | Oc1c(N=NC(=S)Nc2ccccc2F)c2ccccc2n1Cc1ccc(Cl)cc1 | inconclusive: 6.51 µM [inhibitor, full curve, poor fit]
17 | CSc1ccc(C2c3[nH]c4ccccc4c3CCN2C(=O)c2ccnn2C)cc1 (stereo unspecified) | inconclusive: 5.01 µM [inhibitor, full curve, poor fit]
18 | O=C(NCc1ccccc1)c1ccc2c(c1)N(Cc1ccccc1F)C(=O)c1ccccc1S2=O (stereo unspecified) | inactive
19 | CC(=O)O[C@H]1C(=O)[C@@]2(C)C([C@H](OC(=O)c3ccccc3)[C@]3(O)C[C@H](OC(=O)[C@H](O)[C@@H](NC(=O)c4ccccc4)c4ccccc4)C(C)=C1C3(C)C)[C@]1(OC(C)=O)CO[C@@H]1C[C@@H]2O (stereo partly specified) | inconclusive: 0.291 µM [inhibitor, full curve, poor fit]
20 | O=C(Cn1c(=O)n(-c2ccccc2)c(=O)c2c3c(sc21)CCC3)c1ccc(F)cc1 | inconclusive: 25.1 µM [inhibitor, single point]
21 | Cc1nnc(-c2ccc(Cl)cc2)nc1NCCN(C)C | inconclusive: 11.2 µM [activator, partial curve, poor fit]
22 | Cc1ccsc1/C=N/NC(=O)c1ccc(-n2cccc2)cc1 | inactive

Grouped by structure, the compounds so far containing sulfur.
Row | Compound | Potency
1 | COc1cccc(CN2C(=O)c3ccccc3Sc3ccc(C(=O)NCc4ccccc4)cc32)c1 | inactive
2 | c1ccc2oc(SCc3cn4ccccc4n3)nc2c1 | inconclusive: 20.6 µM [inhibitor, single point]
4 | COc1ccc(F)cc1S(=O)(=O)Nc1cc2c3c(c1)CC(=O)N3CCC2 | inactive
7 | Cc1ccc(S(=O)(=O)NC2OC(=O)C(Cl)=C2Cl)cc1 (stereo unspecified) | inactive
9 | CCOC(=O)C1(Cc2cccc(Cl)c2)CCCN(C(=O)c2ccc(COC)s2)C1 (stereo unspecified) | inconclusive: 14.1 µM [inhibitor, partial curve, poor fit]
10 | O=C(CSc1ccc(Cl)cc1)Nc1ccc(N2CCN(C(=O)c3ccco3)CC2)cc1 | inactive
13 | CCOC(=O)C1(CCOC)CCN(Cc2nc(-c3cccs3)oc2C)CC1 | inconclusive: 11.2 µM [inhibitor, partial curve]
14 | CCc1ccc(NC(=O)CSc2nc3c([nH]c4ccccc43)c(=O)n2-c2ccc(C)cc2)cc1 | inconclusive: 1.12 µM [inhibitor, full curve, poor fit]
16 | Oc1c(N=NC(=S)Nc2ccccc2F)c2ccccc2n1Cc1ccc(Cl)cc1 | inconclusive: 6.51 µM [inhibitor, full curve, poor fit]
17 | CSc1ccc(C2c3[nH]c4ccccc4c3CCN2C(=O)c2ccnn2C)cc1 (stereo unspecified) | inconclusive: 5.01 µM [inhibitor, full curve, poor fit]
18 | O=C(NCc1ccccc1)c1ccc2c(c1)N(Cc1ccccc1F)C(=O)c1ccccc1S2=O (stereo unspecified) | inactive
20 | O=C(Cn1c(=O)n(-c2ccccc2)c(=O)c2c3c(sc21)CCC3)c1ccc(F)cc1 | inconclusive: 25.1 µM [inhibitor, single point]
22 | Cc1ccsc1/C=N/NC(=O)c1ccc(-n2cccc2)cc1 | inactive

Carrying on:

Row | Compound | Potency
23 | CC(C)(C)C(=O)Nc1nnc(SCC(=O)NC2CCCC2)s1 | inactive
24 | C/C(=N\NC(=O)CSc1nc2ccccc2s1)c1cccnc1 | inconclusive: 22.4 µM [inhibitor, single point]
25 | COc1ccc(-c2ccc(NS(=O)(=O)c3ccc(NC(C)=O)cc3)cc2)nn1 | inconclusive: 3.16 µM [activator, partial curve]
26 | Cc1ccc(NC(=O)CCn2c(=S)oc3ccccc32)cc1 | inconclusive: 22.4 µM [inhibitor, single point]
27 | C=CCc1c(C)nc(SCC(=C)C)[nH]c1=O | inactive
28 | CCc1ccc(Oc2nccc(-c3c(-c4ccc(F)cc4)ncn3C3CCNCC3)n2)cc1 | active: 11.2 µM
29 | CCc1ccccc1NC(=O)CN(C)S(=O)(=O)c1cccc2nsnc12 | inactive
30 | COc1ccc2c(c1)O[C@@H](c1cccc(C(F)(F)F)c1)[C@H](O)C2=O | inactive and inconclusive: 18.4 µM [inhibitor, single point]
31 | O=C(N/N=C/c1ccc(F)cc1)c1cccc(NC(=O)c2ccccc2Cl)c1 | inactive
32 | CC(O)CNCCNCc1c(OCc2ccccc2)ccc2ccccc12 (stereo unspecified) | active: 9.2 µM
33 | O=C(COc1ccccc1)Nc1cc(C(F)(F)F)ccc1N1CCCC1 | inconclusive: 12.6 µM [inhibitor, partial curve, poor fit]
34 | [O-][n+]1c2ccccc2[n+]([O-])c2cc(O)ccc21 | inconclusive: 35.5 µM [inhibitor, single point]
35 | Cn1c(=O)n(C)c2cc3[nH]cnc3cc21 | inconclusive: 1.12 µM [inhibitor, single point]
36 | Clc1nc2ccccc2cc1/C=N/Nc1nc2ccccc2[nH]1 | inconclusive: 2.51 µM [activator, partial curve, poor fit]
37 | CCCCN(CCCC)CC(O)COc1ccccc1Br (stereo unspecified) | inconclusive: 14.1 µM [inhibitor, partial curve, poor fit]
38 | O=C(CCc1ccccc1)c1ccc2c(c1)OCCCO2 | inconclusive: 2.31 µM [activator, full curve]
39 | CC(NC(N)=O)C12CC3CC(CC(C3)C1)C2 (stereo unspecified) | inconclusive: 32.6 µM [inhibitor, partial curve, poor fit]
40 | C/C(N)=C(/C#N)C(=O)CSc1nnc(Nc2cccc(C)c2)s1 | inconclusive: 6.31 µM [activator, single point]
41 | CCN1CCN(c2c(/C=C3\SC(=S)N(Cc4ccco4)C3=O)c(C)c(C#N)c(=O)n2C)CC1 | inconclusive: 35.5 µM [inhibitor, single point]
42 | COc1ccc(OC)c2c(C)cc(N3CCN(C(=O)c4ccc(F)cc4)CC3)nc12 | inconclusive: 35.5 µM [inhibitor, single point]
43 | O=c1[nH]c(C2CCN(S(=O)(=O)c3ccccc3)CC2)nc2c1nnn2Cc1c(F)cccc1Cl | inconclusive: 35.5 µM [inhibitor, single point]
44 | Cc1cc(C)n(CCNC(=O)c2ccco2)n1 | inactive

Row | Compound | Potency
45 | CCC(c1ccccc1)C(CC)c1cc(O)c(O)c(O)c1 (stereo unspecified) | inconclusive: 1.41 µM [inhibitor, full curve]
46 | CCn1c(=O)c(C(=O)CN2CCN(S(=O)(=O)c3cc(C)ccc3C)CC2)c(N)n(Cc2ccccc2)c1=O | inconclusive: 35.5 µM [inhibitor, single point]
47 | CN(CC(=O)Nc1cccc(C(F)(F)F)c1)C1=NS(=O)(=O)c2ccccc21 | inconclusive: 6.31 µM [inhibitor, partial curve, poor fit]
48 | CN(C)CCCn1c(SCC(=O)Nc2nc(-c3cccc(Br)c3)cs2)nc2ccccc2c1=O | inconclusive: 35.5 µM [inhibitor, single point]
49 | CC(=O)c1cccc(OCc2cc(C(=O)N(C)Cc3ccc(C)o3)no2)c1 | inactive
50 | CCOC(=O)Cn1nnnc1CN(Cc1ccc(OC)cc1)Cc1cc2cc(C)ccc2[nH]c1=O | inconclusive: 4.61 µM [inhibitor, full curve, poor fit]
51 | O=C1OC(/C=C/c2ccc(Cl)cc2)=NC/1=C/c1ccco1 | inactive
52 | O=C1/C(=C/c2ccncc2)N2CCC1CC2 | inconclusive: 3.55 µM [inhibitor, single point]
53 | O=C(Cn1c(=O)n(Cc2ccco2)c(=O)c2c3c(sc21)CCCCC3)c1ccccc1 | inactive
54 | CCOC(=O)c1c(C)[nH]c2c1-c1ccccc1C(=O)C2=O | inconclusive: 0.461 µM [inhibitor, full curve, poor fit]
55 | C/C(=N\NC(=O)c1ccccc1)c1ccc(N2CCCCC2)cc1 | inactive
56 | Cc1c(C(=O)N2CCc3ccccc3C2)oc2ccc(S(=O)(=O)N3CC(C)CC(C)C3)cc12 (stereo unspecified) | inconclusive: 15.8 µM [inhibitor, partial curve, poor fit]
57 | CC(Oc1ccccc1)C(=O)Nc1ccc(C(=O)OCc2cc(=O)n3nc(C(C)C)sc3n2)cc1 (stereo unspecified) | inconclusive: 1 µM [inhibitor, full curve, poor fit]
58 | Cc1nc2c(C(=O)N3CCCCC3)cnn2c(C)c1Cc1ccccc1F | inactive
59 | Cc1[nH]c2ccc(C(=O)N3CCN(c4ccccc4F)CC3)cc2c1C | inconclusive: 4.47 µM [inhibitor, full curve, poor fit]
60 | COc1cccc(-c2c[nH]c3c(NN=Cc4ccncc4)ncnc23)c1 | inconclusive: 2.23 µM [activator, full curve]
61 | Clc1ccc(Cc2nnc(-c3ccccc3Br)o2)cc1 | inactive
62 | C/C(=N\NC(=O)Cc1csc(N2CCOCC2)n1)c1ccc(Cl)c(Cl)c1 | inconclusive: 35.5 µM [inhibitor, single point]
63 | O=C(NN=Cc1ccccc1O)c1cccc([N+](=O)[O-])c1 | inconclusive: 3.16 µM [inhibitor, full curve]
64 | COc1ccccc1C=NN=Cc1ccccc1O | inconclusive: 5.01 µM [activator, single point]
65 | Cc1ccc(-n2[nH]c(C)c(/C=N/n3c(C)nc4ccccc4c3=O)c2=O)cc1 | inconclusive: 29.1 µM [inhibitor, single point]
66 | Cc1ccc(SCCC(=O)N(C)C)cc1 | inconclusive: 29.1 µM [activator, single point]

From no. 54 as far as 55, as listed above:
Row | Compound | Potency
54 | CCOC(=O)c1c(C)[nH]c2c1-c1ccccc1C(=O)C2=O | inconclusive: 0.461 µM [inhibitor, full curve, poor fit]
55 | C/C(=N\NC(=O)c1ccccc1)c1ccc(N2CCCCC2)cc1 | inactive
